According to patent US20030148444A1:
Results are given in words; binding and its absence hold for the method and conditions named. Some binding calls cover weakened binding; strength is not graded here.

Sequences of proteins named here, by UniProt entry; tags and fusion partners are left off.
UniProt P10852: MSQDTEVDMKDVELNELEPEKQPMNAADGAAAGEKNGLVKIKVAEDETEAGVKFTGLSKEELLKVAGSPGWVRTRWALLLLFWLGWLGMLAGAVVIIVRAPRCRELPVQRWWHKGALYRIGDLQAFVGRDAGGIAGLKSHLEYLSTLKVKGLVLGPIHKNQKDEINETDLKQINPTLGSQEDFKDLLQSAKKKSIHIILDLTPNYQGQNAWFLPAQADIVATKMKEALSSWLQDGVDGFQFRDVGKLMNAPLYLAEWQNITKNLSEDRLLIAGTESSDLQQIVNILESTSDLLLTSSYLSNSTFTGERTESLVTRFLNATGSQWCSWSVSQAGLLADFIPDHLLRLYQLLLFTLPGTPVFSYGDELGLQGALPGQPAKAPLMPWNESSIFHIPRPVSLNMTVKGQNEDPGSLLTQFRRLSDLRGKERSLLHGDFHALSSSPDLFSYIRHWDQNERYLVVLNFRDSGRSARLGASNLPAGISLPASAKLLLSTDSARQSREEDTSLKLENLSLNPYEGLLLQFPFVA

Target: 4F2hc of mouse (mouse) (UniProt P10852)
Assay: western blot of mouse cerebral membrane fraction; 118 kDa complex under non-reducing condition resolved by 2-mercaptoethanol

binding: binds
B1: sodium-independent small neutral amino acid transporter asc-1 of mouse (protein)
chain: MRRDSDMASHIQQPGGHGNPGPAPSPSPGPGPGPGASERVALKKEIGLVSACTIIIGNIIGSGIFISPKGVLEHSGSVGLALFVWVLGGGVTALGSLCYAELGVAIPKSGGDYAYVTEIFGGLAGFLLLWSAVLIMYPTSLAVISMTFSNYVLQPVFPNCIPPATASRVLSMACLMLLTWVNSSSVRWATRIQVIFTGGKLLALSLIITVGFVQIFQGHFEELRPTNAFAFWMTPSVGHLALAFLQGSFAFSGWNFLNYVTEELVDPRKNLPRAIFISIPLVTFVYTFTNVAYFTAMSPQELLSSNAVAVTFGEKLLGYFSWVMPVSVALSTFGGINGYLFTSSRLCFSGAREGHLPSFLAMIHVRRCTPIPALLVCCGATAVIMLVGDTYTLINYVSFINYLCYGVTILGLLVLRWRRPALHRPIKVNLLVPVVYLVFWAFLLVFSFISEPMVCGVGIIIILTGVPIFFLGVFWRSKPKCVHRFTESMTRWGQELCFVVYPQGSLEEEENGPMGQPSPLPITDKPLKTQ
